{"source": "PubChem BioAssay AID1347076", "about": "(National Center for Advancing Translational Sciences (NCATS), 2019)", "note": "The campaign covered roughly 400,000 compounds. About 13,000 (3.2%) were called active. The inconclusive results got no clear call from the source; some entries with a clear call stand among them for comparison. The call rests on the fitted dose curve; in most records, active means well fitted cell-killing curve with a large enough effect; inconclusive means small, poorly fitted or top-dose-only effect, or effect the other way; inactive means flat fitted curve, though single readings scatter. A potency beside an inconclusive call is a rough fit, not a confirmed value. On the % scale 0 is the no-effect control and ±100 the full control effect; potency means the concentration at half of the fitted maximal effect.", "data": [{"assay": "qHTS assay for MDR1-selective chemotherapeutics: Primary screen using the drug-selected MDR subline cells KB-V1; further: nearly all actives have a fitted effect of over 60% in size", "settings": "KB-V1 MDR cells viability, CellTiter-Glo, 72 h; activity change, negative = cytotoxicity: at 46.1 µM (top of the series)", "method_in_brief": "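qHTS viability screen in drug-selected KB-V1 MDR cells: 72 h compound treatment at 37 degrees C, ATP luminescence end point.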", "values": [{"smiles": "CN1/C(=C\\C(=O)Nc2ccc(Br)cc2)C(C)(C)c2ccccc21", "Potency": "inconclusive: 25.9 µM [cytotoxic, single point]"}, {"smiles": "Cc1ccc2nc(-c3c[nH]c4ccccc34)c(Nc3ccc(F)cc3)n2c1", "Potency": "inconclusive: 10.3 µM [cytotoxic, partial curve]"}, {"smiles": "Cc1cccc(C(=O)Nc2ccc(C(=O)/C=C/c3cccnc3)cc2)c1", "Potency": "inconclusive: 29.1 µM [cytotoxic, single point]"}, {"smiles": "COc1ccc(C(=O)Nc2ccccc2N2CCOCC2)cc1[N+](=O)[O-]", "Potency": "active: 20.6 µM"}, {"smiles": "Cc1ccc(C)c(NC(=O)CN(C)C(=O)c2cc([N+](=O)[O-])ccc2N2CCOCC2)c1", "Potency": "inactive"}, {"smiles": "CC(=O)N(C)C1=C(O)c2ccccc2C(=O)C1=O", "Potency": "inactive"}, {"smiles": "CCOC(=O)c1c(C)[nH]c(C(=O)NCCc2ccc(OC)c(OC)c2)c1C", "Potency": "inconclusive: 7.31 µM [cytotoxic, partial curve]"}, {"smiles": "CCN(CC)CC(=O)Nc1sc2c(c1C(=O)c1ccccc1OC)CCC2", "Potency": "inconclusive: 4.11 µM [cytotoxic, partial curve]"}, {"smiles": "CC1CCCN(c2nc(-c3cccnc3)nc3scc(-c4ccccc4)c23)C1", "note": "(stereo unspecified)", "Potency": "inconclusive: 10.3 µM [cytotoxic, partial curve]"}, {"smiles": "CC(=O)Nc1ccc(N2C(=O)c3cccc4c(O)ccc(c34)C2=O)cc1", "Potency": "inactive"}, {"smiles": "O=C(CCS(=O)(=O)c1cccc2nonc12)Nc1ccc(F)cc1F", "activity change, negative = cytotoxicity": "inconclusive: 0%"}, {"smiles": "CC(C)c1[nH]nc2c1C(c1cccc(OC(=O)N3CCOCC3)c1)C(C#N)=C(N)O2", "note": "(stereo unspecified)", "Potency": "inconclusive: 18.4 µM [rising, single point]"}, {"smiles": "C=CCOc1cccc(C(=O)N(C)C2CCCN(Cc3ccccc3F)C2)c1", "note": "(stereo unspecified)", "Potency": "inactive"}, {"smiles": "CCOc1ccc(S(=O)(=O)N2CCN(c3ccccc3F)CC2)c2cccnc12", "Potency": "inconclusive: 20.6 µM [cytotoxic, single point]"}, {"smiles": "CCC(=O)N1CCc2cc(S(=O)(=O)NC(CC(C)C)C(=O)N3CCc4ccccc43)ccc21", "note": "(stereo unspecified)", "Potency": "active: 13 µM"}, {"smiles": "O=c1c([N+](=O)[O-])cc(C(F)(F)F)cn1Cc1cccc(Cl)c1", "Potency": "active: 18.4 µM"}, {"smiles": "Cc1noc(C)c1COC(=O)c1ccc(-c2nc3ccccc3s2)s1", "Potency": "inconclusive: 25.9 µM [cytotoxic, single point]"}, {"smiles": "CSc1nc2ccc(S(=O)(=O)N3CCc4ccccc43)cc2s1", "Potency": "active: 3.66 µM"}, {"smiles": "COc1ccc(C(CNC(=O)c2cc(C)oc2C)N2CCOCC2)cc1", "note": "(stereo unspecified)", "Potency": "inactive"}, {"smiles": "CCc1ccc(N2CC(C(=O)OCc3nc4ccsc4c(=O)[nH]3)CC2=O)cc1", "note": "(stereo unspecified)", "Potency": "inconclusive: 29.1 µM [cytotoxic, single point]"}, {"smiles": "O=C(Nc1ccc(F)cc1)Nc1csc2ccccc12", "Potency": "inconclusive: 25.9 µM [cytotoxic, single point]"}, {"smiles": "Cc1ccc(CN2C(=O)CCC2C(=O)NC2CC2)cc1", "note": "(stereo unspecified)", "Potency": "inconclusive: 18.4 µM [rising, single point]"}, {"smiles": "CCOC(=O)C1C(C(=O)OCC)C1(c1ccccc1)c1ccccc1", "note": "(stereo unspecified)", "Potency": "active: 10.3 µM"}, {"smiles": "O=C(CC(c1cccs1)N1Cc2ccccc2C1=O)Nc1cccc(F)c1", "note": "(stereo unspecified)", "activity change, negative = cytotoxicity": "inconclusive: -18.9%"}, {"smiles": "CCCn1ccc2c(OCC(=O)Nc3ccc(OC)c(OC)c3)cccc2c1=O", "Potency": "inactive"}, {"smiles": "COc1ccccc1N1CCN(C2C(=O)Nc3ccccc3-n3nnnc32)CC1", "note": "(stereo unspecified)", "Potency": "inconclusive: 18.4 µM [cytotoxic, partial curve, poor fit]"}, {"smiles": "CCN(C(=O)CCc1nc(-c2ccccc2F)no1)c1cc(OC)ccc1OC", "Potency": "inconclusive: 25.9 µM [cytotoxic, single point]"}, {"smiles": "O=C1CC(c2ccc(F)cc2)CC2=C1C=Nc1ccccc1N2", "note": "(stereo unspecified)", "Potency": "inconclusive: 9.2 µM [cytotoxic, partial curve, poor fit]"}, {"smiles": "Nc1nc(N2CCN(C(=O)c3ccco3)CC2)nc2ccccc12", "Potency": "inactive"}, {"smiles": "CCOC(=O)N1CCN(C(=O)c2cc(COc3ccc(F)cc3F)on2)CC1", "Potency": "inconclusive: 13 µM [cytotoxic, partial curve, poor fit]"}, {"smiles": "CCC[C@H]1CN(c2ccc(OC)cc2)C(=O)[C@@H]1CC(=O)Nc1ccccc1", "Potency": "inactive"}, {"smiles": "CC(C)N1CCC1(C)C(=O)Nc1ccc(-n2cccc2)cc1", "note": "(stereo unspecified)", "Potency": "inactive"}, {"smiles": "COc1ccc(Cn2c(CCC(=O)Nc3ccccc3OC)nc3cccnc32)cc1", "Potency": "inconclusive: 25.9 µM [cytotoxic, single point]"}, {"smiles": "COc1ccccc1NC(=O)CSc1nc2sc(C)c(C)c2c(=O)n1Cc1ccco1", "Potency": "inconclusive: 1.64 µM [cytotoxic, full curve, poor fit]"}, {"smiles": "C=CCN(CC=C)S(=O)(=O)c1ncn[nH]1", "Potency": "inconclusive: 29.1 µM [rising, partial curve, poor fit]"}, {"smiles": "Cc1nc2cc(NCc3ccc(Cl)cc3)ccc2n1C", "Potency": "inconclusive: 4.11 µM [cytotoxic, full curve, poor fit]"}, {"smiles": "Cc1ccc2nc(NC(=O)C3CC3C)sc2c1", "note": "(stereo unspecified)", "Potency": "inactive"}, {"smiles": "COc1ccc(C(=O)N=c2sc3c(C)ccc(OC)c3n2C)cc1OC", "Potency": "active: 18.4 µM"}, {"smiles": "COc1ccccc1CN1CCC(n2nccc2NC(=O)c2ccccc2Cl)CC1", "Potency": "inconclusive: 16.4 µM [cytotoxic, partial curve, poor fit]"}, {"smiles": "O=C(CN1C(=O)NC(c2ccccc2)(c2ccccc2)C1=O)N1CCN(c2ccc(F)cc2)CC1", "Potency": "inconclusive: 29.1 µM [cytotoxic, single point]"}, {"smiles": "CCCCC(=O)NC(c1ccc(N(C)C)cc1)c1ccc2cccnc2c1O", "note": "(stereo unspecified)", "Potency": "inconclusive: 3.26 µM [cytotoxic, partial curve, poor fit]"}, {"smiles": "Clc1ccccc1-c1nnc2sc(C3COc4ccccc4O3)nn12", "note": "(stereo unspecified)", "Potency": "active: 16.4 µM"}, {"smiles": "CCC(C)(C)n1nnnc1C(c1cccs1)N1CCN(c2nc3ccccc3s2)CC1", "note": "(stereo unspecified)", "Potency": "inconclusive: 5.8 µM [cytotoxic, partial curve]"}, {"smiles": "CCOC(=O)N1CCN(C(=O)C(c2ccccc2)c2ccccc2)CC1", "Potency": "active: 4.11 µM"}, {"smiles": "CCc1c(C)nc2nc(-c3ccccc3)nn2c1NCc1ccc(C)cc1", "Potency": "inactive"}, {"smiles": "O=C(CSc1cn(CCNC(=O)c2c(F)cccc2F)c2ccccc12)Nc1ccccc1F", "activity change, negative = cytotoxicity": "inconclusive: -42.2% [cytotoxic]"}]}]}
